This passage reports cell number change and AC50 results from PubChem BioAssay AID2685 (National Center for Advancing Translational Sciences (NCATS), 2010).

This test in a line: qHTS Assay for Lipid Storage Modulators in Drosophila S3 Cells.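 For cell number change: cells counted by Cell Tracker Red CMTPX staining in the red channel.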 Particulars: BODIPY lipid droplet fluorescence, 18-24 h; for cell number change: measured here: cell count max response, cells fed with added oleic acid. The method in brief: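 Drosophila S3 cells loaded with oleic acid (400 uM, as added) and compounds at several concentrations; lipid droplets imaged by 488-nm laser-scanning cytometry, 500–530 nm intensity and object ratio to cell channel. Percent activity normalized to 20 uM Triacsin C.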
On the technique in general: In qHTS, concentration-response curves come from the screen itself.

[1] abbreviates: measured here: cell number channel AC50, cells fed with added oleic acid.
Setting [2] is: measured here: lipid fluorescence (Fed channel) AC50, cells fed with added oleic acid.

The list shows a part of the results. Further columns of the screen follow, without active or inactive calls. Most of these compounds were active or inconclusive in the main read-out, so they are no random draw. The note in brackets gives the kind of curve behind each potency; many fits are weak.

Consider `Cc1ccsc1/C=N\NC(=O)c1n[nH]c2c1CCC2`, for which the cell number change is -31.7%. For the same molecule, the AC50 under setting [1] was 29.1 µM [falling, partial curve, poor fit]. Also, under setting [2], the AC50 is 0.231 µM [falling, full curve, poor fit].

For `CC(C)c1onc(C(=O)NCc2ccccc2)c1[N+](=O)[O-]`, the cell number change was determined as 0.963%. The AC50 under setting [1] was 6.51 µM [rising, single point]. The AC50 under setting [2] is 6.51 µM [rising, single point].

For the molecule `CC(C)C(=O)N1CCN(c2ccccc2NC(=O)c2ccco2)CC1`, the cell number change turned out to be 18.4%. Under setting [1], the AC50 was 0.291 µM [rising, partial curve, poor fit].

For `COC(=O)[C@]1(Cc2ccccc2)N[C@H](c2ccc(-c3cccc(Cl)c3)cc2)[C@@H]2C(=O)N(C)C(=O)[C@@H]21`, the cell number change came out at 3.04%. The AC50 under setting [1] is 2.06 µM [falling, partial curve].

In the case of `COc1cccc(NC(=O)Nc2nnc(Cc3ccccc3F)s2)c1`, the cell number change is -33.1%. For the same molecule, under setting [1], the AC50 is 29.1 µM [falling, single point].

`S=c1[nH]nc(COc2ccccc2)n1/N=C/c1ccc(Cl)c(Cl)c1`: the cell number change was -42.7%. The AC50 under setting [1] was 29.1 µM [falling, single point]. Besides, the AC50 under setting [2] is 29.1 µM [falling, single point].

`Cc1nc(-c2cccc(NC(=O)Cc3ccccc3)c2)cs1`: the cell number change is 75.5%. Under setting [1], the AC50 was 3.66 µM [rising, full curve]. Besides, under setting [2], the AC50 is 3.26 µM [rising, partial curve, poor fit].

As for `COC(=O)c1sccc1NC(=S)N1CCN(c2ccccc2)CC1`, the cell number change stood at 5.88%. Also, under setting [2], the AC50 was 0.651 µM [rising, full curve, poor fit].

In the case of `Cc1c(Cl)c(-c2n[nH]c(=S)n2CC(C)C)nn1C`, the cell number change was determined as 9.87%. Besides, under setting [2], the AC50 was 6.51 µM [rising, partial curve].

With `Cc1ccc(S(=O)(=O)N2CCCCC2)cc1C(=O)NCCc1ccccc1`, the cell number change is 33.5%. Besides, the AC50 under setting [1] was 11.6 µM [rising, partial curve, poor fit].

For `O=C(COc1ccccc1F)NCC(c1ccc(F)cc1)N1CCOCC1` (stereo unspecified), the cell number change was -20.1%. Moreover, the half-maximal activity concentration (AC50) under setting [2] is 2.31 µM [rising, single point].

For the molecule `CCOc1ccccc1NS(=O)(=O)c1ccc(Br)s1`, the cell number change is -9.64%. Besides, the AC50 under setting [2] was 29.1 µM [rising, single point].

With `COc1ccc(N(CC(=O)Nc2nccs2)S(=O)(=O)c2c(C)nn(C)c2C)cc1`, the AC50 was 0.731 µM [rising, single point] under setting [1] and 1.16 µM [rising, single point] under setting [2].

For the molecule `CC(=O)c1cccc(NC(=O)C(C)OC(=O)/C=C/c2cccs2)c1` (stereo unspecified), the cell number change was 12.4%.

Regarding `Cc1cccc(C)c1NC(=O)C(=O)NCCCN1CCOCC1`, the cell number change worked out at 37.9%. Moreover, the concentration at half-maximal activity (AC50) under setting [1] was 32.6 µM [rising, single point].

With `CNC(=O)COC(=O)c1ccc2c(c1)S(=O)(=O)c1ccccc1C2=O`, the cell number change was 2.25%. The AC50 under setting [2] was 0.58 µM [falling, single point].

On to `COc1ccc(Cl)cc1NC(=O)CN(C)C(=O)c1sccc1-c1ccccc1`, for which the cell number change was -14.9%. For the same molecule, the AC50 under setting [2] is 8.2 µM [falling, partial curve, poor fit].

Take `Cc1cc(Nc2ccccc2)nc(N2CCN(C(=O)c3ccc4c(c3)OCO4)CC2)n1`: the cell number change turned out to be 4.21%. The half-maximal activity concentration (AC50) under setting [2] is 0.146 µM [rising, full curve].

In the case of `COc1ccc(/C=N/NC(=O)CNC(=O)/C=C/c2ccccc2OC)cc1`, the cell number change amounted to 5.56%. Also, under setting [1], the AC50 was 1.84 µM [rising, partial curve].

`CCN(CC)C(=O)CN1C(=O)C2(OCC(C)(C)CO2)c2ccccc21`: the cell number change came to 35.3%. In addition, under setting [1], the AC50 is 4.11 µM [rising, partial curve].

Turning to `OCCNc1nc(N2CCN(Cc3ccccc3)CC2)nc2ccccc12`, the cell number change stood at 107%. The AC50 under setting [1] is 20.6 µM [rising, partial curve]. Besides, the concentration at half-maximal activity (AC50) under setting [2] is 0.731 µM [rising, partial curve].

Regarding `COc1ccc(N2CCN(Cc3nc4scc(-c5ccccc5)c4c(=O)[nH]3)CC2)cc1`, the cell number change was found to be 19.4%.

On to `CCCCn1c(=O)c(CCC(=O)OCC(=O)Nc2ccc(F)c(Cl)c2)nc2ccccc21`, for which the cell number change amounted to 10.3%.

As for `N#CC1=C(S)N(c2ccc(F)cc2)C(c2ccco2)NC1=O` (stereo unspecified), the cell number change came to 4.15%.

In the case of `CC(=O)N1C(=O)C2(Nc3ccccc3N2)c2ccccc21`, the cell number change is -0.255%. For the same molecule, the AC50 under setting [2] is 1.46 µM [rising, partial curve].

Turning to `O=S(=O)(Nc1cccnc1)c1ccc2c(c1)OCCO2`, the cell number change is -35%. Further, under setting [1], the half-maximal activity concentration (AC50) is 29.1 µM [falling, single point]. Moreover, the concentration at half-maximal activity (AC50) under setting [2] was 6.51 µM [falling, single point].

As to `CCOc1ccc(Cl)cc1S(=O)(=O)NCc1ccccn1`, the cell number change was -13.5%. For the same molecule, the AC50 under setting [1] is 0.00461 µM [rising, full curve, poor fit].

Consider `O=C(O)CN1C(=O)/C(=C\c2cccc(OCc3ccccc3F)c2)SC1=S`, for which the cell number change stood at 0.704%. For the same molecule, the AC50 under setting [2] was 0.146 µM [falling, full curve, poor fit].

Consider `O=C(CCCN1C(=O)c2ccccc2C1=O)Nc1nccs1`, for which the cell number change was found to be 31.1%.

As to `Cc1c(-c2nnc(-c3ccc(C(F)(F)F)cc3)o2)cnn1-c1ccccc1`, the cell number change is -1.36%. Further, the AC50 under setting [2] was 1.3 µM [rising, full curve].

On to `Cc1nn(Cc2ccc(C(=O)Nc3ccccc3F)cc2)c(C)c1Cl`, for which the cell number change was -32.1%. Further, the AC50 under setting [1] was 29.1 µM [falling, single point]. Besides, under setting [2], the AC50 was 20.6 µM [falling, single point].

As for `CCN(CC)CC#CCC(O)(c1ccccc1)c1ccccc1`, the cell number change was -7.91%. Also, the AC50 under setting [2] was 0.116 µM [falling, full curve, poor fit].

As for `CCCCNC(=S)NC(=O)c1ccc([N+](=O)[O-])cc1`, the cell number change amounted to 29.4%. Further, the AC50 under setting [2] was 20.6 µM [rising, partial curve, poor fit].

For `O=C(OCC(=O)N1CCN(C(=O)c2ccco2)CC1)c1ccccc1O`, the cell number change is -42.5%. Besides, the concentration at half-maximal activity (AC50) under setting [1] is 25.9 µM [falling, single point]. For the same molecule, the AC50 under setting [2] is 29.1 µM [falling, single point].

`CCCC(=O)N1CCN(c2nc3c(OC)ccc(Cl)c3s2)CC1`: the cell number change came out at 54.2%. Also, under setting [1], the AC50 was 32.6 µM [rising, partial curve, poor fit]. For the same molecule, the AC50 under setting [2] was 29.1 µM [rising, single point].

As to `Clc1cccc(/C=N/N2CCN(Cc3ccccc3)CC2)c1`, the cell number change came to 21.6%.

As to `CC[C@@]12C(=O)N(c3ccc(C)cc3)C(=O)N1[C@H](c1cccc(C)c1)[C@@H]1C(=O)N(Cc3ccccc3)C(=O)[C@@H]12`, under setting [2], the AC50 was 0.366 µM [falling, single point].

For orientation: AC50 means the midpoint of the concentration-response curve, whichever way the signal moves. A low value points to greater potency.
